Test results taken from PMC2169300, “Signal-Regulated Pre-mRNA Occupancy by the General Splicing Factor U2AF”.
Results are given in words; binding and its absence hold for the method and conditions named. For some of these results: Binding seen in cells or lysates may run through a third protein. Some entries that bind do so weakly or less than the wild type. For some of these results: Tags and fused reporters may be left off the sequences shown.

Protein sequences, listed by entry. Tags and fused reporters are not part of them. Residues count along the entry.
UniProt Q60749: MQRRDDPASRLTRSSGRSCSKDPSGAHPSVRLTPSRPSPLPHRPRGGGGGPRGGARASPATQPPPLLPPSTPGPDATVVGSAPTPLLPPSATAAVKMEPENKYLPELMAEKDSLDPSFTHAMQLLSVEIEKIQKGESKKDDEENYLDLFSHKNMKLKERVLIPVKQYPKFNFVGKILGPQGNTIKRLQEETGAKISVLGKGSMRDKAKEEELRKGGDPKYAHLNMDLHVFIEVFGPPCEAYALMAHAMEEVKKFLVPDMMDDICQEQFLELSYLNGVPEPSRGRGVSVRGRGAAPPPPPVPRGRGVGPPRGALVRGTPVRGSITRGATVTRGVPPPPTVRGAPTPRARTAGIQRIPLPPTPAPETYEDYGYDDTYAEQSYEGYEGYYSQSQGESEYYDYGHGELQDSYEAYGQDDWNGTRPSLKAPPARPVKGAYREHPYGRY
UniProt P26368, residues 2-475: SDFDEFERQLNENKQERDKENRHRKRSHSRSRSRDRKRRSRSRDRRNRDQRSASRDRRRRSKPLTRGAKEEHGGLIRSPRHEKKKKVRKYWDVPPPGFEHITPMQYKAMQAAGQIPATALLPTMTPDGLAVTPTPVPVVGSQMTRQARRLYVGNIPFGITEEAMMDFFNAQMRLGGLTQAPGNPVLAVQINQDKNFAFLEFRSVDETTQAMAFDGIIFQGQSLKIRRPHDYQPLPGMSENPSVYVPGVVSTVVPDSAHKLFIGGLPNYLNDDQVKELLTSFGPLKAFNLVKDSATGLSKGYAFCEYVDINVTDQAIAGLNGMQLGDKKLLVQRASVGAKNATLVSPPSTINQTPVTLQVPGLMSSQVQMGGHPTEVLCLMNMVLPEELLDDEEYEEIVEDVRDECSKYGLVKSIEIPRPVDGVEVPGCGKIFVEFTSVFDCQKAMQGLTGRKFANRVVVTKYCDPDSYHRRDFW
UniProt P26369: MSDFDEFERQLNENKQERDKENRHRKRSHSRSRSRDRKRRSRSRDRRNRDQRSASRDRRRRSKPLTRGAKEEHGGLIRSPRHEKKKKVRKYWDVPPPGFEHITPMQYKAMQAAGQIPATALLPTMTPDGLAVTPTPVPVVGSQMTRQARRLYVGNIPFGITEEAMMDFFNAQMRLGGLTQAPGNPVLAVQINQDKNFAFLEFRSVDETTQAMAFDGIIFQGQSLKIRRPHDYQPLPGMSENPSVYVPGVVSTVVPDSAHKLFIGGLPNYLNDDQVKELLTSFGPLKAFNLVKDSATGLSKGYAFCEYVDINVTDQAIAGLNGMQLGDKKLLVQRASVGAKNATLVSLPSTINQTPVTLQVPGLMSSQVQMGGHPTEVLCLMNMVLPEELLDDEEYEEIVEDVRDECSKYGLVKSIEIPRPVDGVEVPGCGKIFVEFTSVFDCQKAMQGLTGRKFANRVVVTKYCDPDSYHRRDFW

Experiments:
[1] = target: Sam68 (endogenous, LB17 mouse lymphoma cells) (mouse (endogenous in LB17)) (UniProt Q60749); assay: co-IP; LB17 mouse lymphoma cell lysate (50 mM Tris-HCl pH 8.0, 100 mM NaCl, 0.5% NP40), anti-Sam68 antibody C20 on protein A/G agarose, 4 C 1 h; immunoblot with anti-U2AF65; with or without RNase A (0.2 ug/ul) before and during precipitation
[2] = target: T1, GST-fusion protein of U2AF35 (human) (UniProt Q01081); assay: pull-down; data not shown: GST-fusions of U2AF65 and U2AF35 with recombinant Sam68 left unphosphorylated or phosphorylated by ERK in vitro; both purified
T1 sequence: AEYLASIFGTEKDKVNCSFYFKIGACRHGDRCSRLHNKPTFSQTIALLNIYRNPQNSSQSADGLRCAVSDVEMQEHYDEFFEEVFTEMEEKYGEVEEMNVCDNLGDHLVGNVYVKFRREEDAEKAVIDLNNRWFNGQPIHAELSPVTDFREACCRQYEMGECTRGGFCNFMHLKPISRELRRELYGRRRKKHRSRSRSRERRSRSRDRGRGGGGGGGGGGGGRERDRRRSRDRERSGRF

[3] = target: GST-fusion protein of U2AF65 (human) (UniProt P26368); assay: as above
[4] = target: T1, GST-fusion protein of U2AF35 (human); assay: pull-down; 0.5-1 ug GST-U2AF fusion protein or GST with 100 or 200 ng His-Sam68 in 50 ul binding buffer (10 mM HEPES pH 7.9, 150 mM KCl, 0.1% NP40, 0.5 mg/ml BSA, 1 mM DTT, 1 mM PMSF), 30 C 1 h; glutathione sepharose at room temperature 90 min; immunoblot with anti-Sam68; both purified
[5] = target: GST-fusion protein of U2AF65 (human) (UniProt P26368); assay: as above

binding [1] | binding [2] | binding [3] | binding [4] | binding [5] | Substance
binds |  |  |  |  | U2AF65 (endogenous, LB17 mouse lymphoma cells) (from UniProt P26369 1-475)
 | binds | binds |  |  | recombinant Sam68 phosphorylated by ERK in vitro (from UniProt Q60749 1-443)
 | binds | binds | binds | binds | recombinant His-tagged Sam68 (from UniProt Q60749 1-443)
